Test results from publication PMC6693157.
Results are given in words; binding and its absence hold for the method and conditions named. In cells and extracts the contact can be indirect. Some entries that bind do so weakly or less than the wild type.

By UniProt entry, the sequences of proteins in these tests, tags left out.
UniProt P24385: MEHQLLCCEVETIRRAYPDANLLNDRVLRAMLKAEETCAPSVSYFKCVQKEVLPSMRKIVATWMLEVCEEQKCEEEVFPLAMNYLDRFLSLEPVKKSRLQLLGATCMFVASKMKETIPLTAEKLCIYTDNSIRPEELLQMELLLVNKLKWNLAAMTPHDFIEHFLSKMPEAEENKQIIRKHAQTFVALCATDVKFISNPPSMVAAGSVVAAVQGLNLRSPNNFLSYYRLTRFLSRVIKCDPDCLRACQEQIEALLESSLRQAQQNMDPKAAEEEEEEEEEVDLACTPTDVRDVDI

Target: T1, RASSF-1A protein (human (endogenous in SCC9)) (UniProt Q9NS23)
T1 sequence: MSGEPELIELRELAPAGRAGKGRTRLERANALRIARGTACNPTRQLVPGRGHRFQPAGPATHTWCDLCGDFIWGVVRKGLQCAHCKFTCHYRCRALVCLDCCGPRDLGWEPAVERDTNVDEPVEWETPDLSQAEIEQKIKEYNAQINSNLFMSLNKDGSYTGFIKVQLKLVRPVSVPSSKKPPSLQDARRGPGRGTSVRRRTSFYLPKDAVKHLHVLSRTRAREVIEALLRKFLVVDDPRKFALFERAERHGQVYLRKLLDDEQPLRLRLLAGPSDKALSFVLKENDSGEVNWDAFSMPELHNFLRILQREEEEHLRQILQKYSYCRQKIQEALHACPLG
Experiment: co-IP; SCC9 whole-cell lysate; Protein A/G agarose with rabbit anti-RASSF-1A or rabbit anti-CyclinD1, normal rabbit IgG as control; analysed by western blot

binding: binds
Substance: CyclinD1 protein (from UniProt P24385 1-295)
